The results in this text go back to US20050019808A1 (WISCONSIN ALUMNI RESEARCH FOUNDATION, published 2005).

The chains behind the UniProt entries cited, without tags or fusion partners. Residues count along the entry.
UniProt Q66765, residues 1045-1194: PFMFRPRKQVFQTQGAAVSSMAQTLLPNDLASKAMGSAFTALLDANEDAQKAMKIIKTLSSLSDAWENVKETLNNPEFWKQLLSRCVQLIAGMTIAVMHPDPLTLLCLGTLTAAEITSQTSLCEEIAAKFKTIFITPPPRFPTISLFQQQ

No constants are given. Whether binding was seen depends on the method and setting. Some entries that bind do so weakly or less than the wild type.

This experiment addresses 2B from infected cells (encephalomyocarditis virus (EMCV-R)) (UniProt Q66765). Nature of the experiment: SDS-PAGE and Western, self-association.

Turning to “2B from infected cells (from UniProt Q66765 1045-1194)”, the binding result is recorded as “binds”.
